The results in this text go back to publication doi:10.1101/061564.

Where two headings read alike, the source gives them in different places. No constants are given. Whether binding was seen depends on the method and setting. For some of these results: Binding can be weak; no strength is given.

Assay in all cases: two-hybrid
Assay [1] concerns the target T1, ELF3-7Q (variant in Col) (Arabidopsis thaliana) (UniProt O82804).
T1 sequence: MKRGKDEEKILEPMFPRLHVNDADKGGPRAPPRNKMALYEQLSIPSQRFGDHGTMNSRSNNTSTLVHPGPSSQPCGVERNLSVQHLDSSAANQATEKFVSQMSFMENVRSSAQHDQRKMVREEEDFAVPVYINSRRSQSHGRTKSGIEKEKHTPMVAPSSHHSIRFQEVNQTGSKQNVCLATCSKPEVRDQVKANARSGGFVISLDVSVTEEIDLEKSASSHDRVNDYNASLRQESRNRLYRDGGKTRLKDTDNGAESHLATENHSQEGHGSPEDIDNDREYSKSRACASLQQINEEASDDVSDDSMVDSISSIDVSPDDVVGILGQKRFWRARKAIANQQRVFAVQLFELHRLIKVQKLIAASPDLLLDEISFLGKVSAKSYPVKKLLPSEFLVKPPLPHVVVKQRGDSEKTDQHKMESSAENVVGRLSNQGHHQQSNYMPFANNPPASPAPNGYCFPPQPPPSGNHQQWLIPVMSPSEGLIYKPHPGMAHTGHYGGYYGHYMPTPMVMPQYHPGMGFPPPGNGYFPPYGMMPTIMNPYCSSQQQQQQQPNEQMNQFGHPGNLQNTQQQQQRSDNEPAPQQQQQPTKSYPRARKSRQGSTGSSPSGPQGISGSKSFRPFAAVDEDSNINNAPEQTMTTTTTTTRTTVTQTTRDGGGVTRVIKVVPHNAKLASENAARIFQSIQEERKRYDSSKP

The target of assay [2] is T1, ELF3-7Q (variant in Col) (Arabidopsis thaliana). This is another data set of the same source.
In assay [3] the target is ELF3-16Q (variant in Ws) (Arabidopsis thaliana) (UniProt O82804).

In the case of “PHYB-Cterm, Ws variant (C-terminal truncation of PHYB sufficient for ELF3 interaction) (Arabidopsis thaliana) (domain or fragment)”, the binding result in assay [1] was “binds”.

Consider “PLAC8-domain-containing protein AT4G23470 (Arabidopsis thaliana)”, for which the binding result in assay [2] and in assay [1] was “binds” each time.

B1: LSH9 (LIGHT-… SHORT HYPOCOTYLS 9), Col variant (protein, UniProt Q9SN52 1-191)
chain: MSSDRHTPTKDPPDHPSSSSNHHKQPLPPQPQQPLSRYESQKRRDWNTFVQYLKSQNPPLMMSQFDYTHVLSFLRYLDQFGKTKVHHQACVFFGQPDPPGPCTCPLKQAWGSLDALIGRLRAAYEEHGGGSPDTNPFANGSIRVHLREVRESQAKARGIPYRKKKRRKTKNEVVVVKKDVANSSTPNQSFT
In the case of B1, in assay [3], the binding result is “no binding”.
